Data on two molecules can be found in patent US20130034559A1.

Protein sequences, listed by entry. Tags and fused reporters are not part of them. Lines headed by an entry give the natural chain unless they say otherwise; changes in a name come on top.
UniProt Q5ZPR3: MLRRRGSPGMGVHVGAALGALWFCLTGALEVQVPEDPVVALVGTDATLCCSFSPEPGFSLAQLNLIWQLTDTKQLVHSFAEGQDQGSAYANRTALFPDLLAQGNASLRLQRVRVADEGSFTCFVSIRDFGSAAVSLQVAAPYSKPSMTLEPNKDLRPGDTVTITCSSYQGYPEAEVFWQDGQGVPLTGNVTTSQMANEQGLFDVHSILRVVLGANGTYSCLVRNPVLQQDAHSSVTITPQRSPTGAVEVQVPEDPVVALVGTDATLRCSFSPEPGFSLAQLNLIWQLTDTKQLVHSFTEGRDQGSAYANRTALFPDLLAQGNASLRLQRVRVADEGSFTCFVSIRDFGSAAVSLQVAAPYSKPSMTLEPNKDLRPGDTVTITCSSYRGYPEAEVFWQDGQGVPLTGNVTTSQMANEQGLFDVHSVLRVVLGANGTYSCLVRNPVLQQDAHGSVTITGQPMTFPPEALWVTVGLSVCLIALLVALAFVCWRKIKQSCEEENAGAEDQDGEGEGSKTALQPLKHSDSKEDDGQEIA

Assay [1] addresses extracellular domain of human B7-H3 (R&D Systems, 1027-B3) (human) (UniProt Q5ZPR3). Kind of assay: ELISA, biotinylated IgG1-TM on coated ECD.
For assay [2], the target named is recombinant monomeric cynomologus B7-H1 FlagHis10 extracellular domain (cynomologus). Kind of assay: SPR (BIAcore T100).

Results are given in words; binding and its absence hold for the method and conditions named. For part of these data: Binding calls can cover weak binding; strength is not graded here.

B1: 2.9D10 in the IgG1-TM format (antibody, V domains shown)
VH: EVQLVESGGGLVQPGGSLRLSCAASGFTFSSYWMSWVRQAPGKGLEWVANIKQDGGEQYYVDSVKGRFTISRDNAKNSLYLQMNSLRAEDTAVYYCARDWNYGYYDMDVWGQGTTVTVSS
VL: EIVLTQSPGTLSLSPGERATLSCRASQSVSSNYLAWFQQKPGQAPRLLIFGTSSRATGIPDRFSGSGSGTDFTLTISRLEPEDFAVYYCQQYGSSIFTFGPGTKVDIK
As for B1, in assay [1], the binding result was “no binding (tested: 100 nM)”.

B2: 2.7A4OPT (antibody, V domains shown)
VH: EVQLVESGGGLVKPGGSLRLSCAASGFTFSTYSMNWVRQAPGKGLEWVSSISSSGDYIYYADSVKGRFTISRDNAKNSLYLQMNSLRAEDTAVYYCARDLVTSMVAFDYWGQGTLVTVSS
VL: SYELTQPPSVSVSPGQTARITCSGDALPQKYVFWYQQKSGQAPVLVIYEDSKRPSGIPERFSGSSSGTMATLTISGAQVEDEADYYCYSTDRSGNHRVFGGGTKLTVL
Consider B2, for which the binding result was “no binding (tested: 100 nM)” in assay [1] and “binds” in assay [2].
